Test results reported in PubChem BioAssay AID504467 (National Center for Advancing Translational Sciences (NCATS), 2011).
Screen size: about 330,000 compounds; about 7,700 (2.3%) were called active. This list was built around the results that the source calls inconclusive (neither active nor inactive); the mix of calls is not that of the screen. The call rests on the fitted dose curve; in most records, active means well fitted inhibition curve with a large enough effect; inconclusive means small, poorly fitted or top-dose-only effect, or effect the other way; inactive means flat fitted curve, though single readings scatter. Potencies beside an inconclusive call are fits to weak or partial responses and may not hold up.

Assay: qHTS screen for small molecules that inhibit ELG1-dependent DNA repair in human embryonic kidney (HEK293T) cells expressing luciferase-tagged ELG1; further: nearly all actives have a fitted effect of over 55% in size
Settings: HEK293T ELG1-luciferase reporter, luminescence, 16 h, DNA damage induced by 5-fluorouridine; activity change, negative = inhibition: at 46.1 µM (top of the series)
How it was run: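 In this reporter screen, reduction of luminescence relative to DMSO vehicle indicated activity. Compounds and 5-fluorouridine were added together to 2,000 cells per well, incubated for 16 hr at 37 °C, then developed with ONE-Glo.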
On the % scale 0 is the no-effect control and ±100 the full control effect; potency means the concentration at half of the fitted maximal effect.

Row | SMILES | Potency | activity change, negative = inhibition
1 | CCS(=O)(=O)Nc1cccc(-c2nc3cccnc3s2)c1C | inconclusive: 18.4 µM [inhibitor, single point] | –
2 | O=C1Nc2ccccc2C1(O)Cc1ccccn1 (centres undefined) | – | inactive: 6.71%
3 | COc1cc2c(cc1OC)C(c1ccc(OC)c(OC)c1OC)CC(=O)N2 (centres undefined) | – | inactive: 6.16%
4 | C/C(=N\NC(=O)c1nnn(-c2nonc2N)c1CN(C)c1ccccc1)c1ccccc1O | inconclusive: 6.51 µM [inhibitor, partial curve, poor fit] | –
5 | Cc1cc(C)cc(NC(=O)CCc2nc3sc4c(c3c(=O)[nH]2)CCCC4)c1 | – | inactive: -11.5%
6 | CC(C)Cn1c(N)c(C(=O)CSc2nccn2C)c(=O)n(C)c1=O | – | inactive: -5.98%
7 | CC1CCCN(C(=O)c2ccc3c(c2NCCO)C(=O)c2ccccc2C3=O)C1 (centres undefined) | inconclusive: 23.1 µM [inhibitor, partial curve, poor fit] | –
8 | O=C(CSCc1ccccc1)Nc1ccc(S(=O)(=O)Nc2ncccn2)cc1 | – | inactive: -6.22%
9 | Cc1occc1C(=O)N/N=C/C1=C(N2CCOCC2)C(=C\c2ccc(Cl)cc2Cl)/CC1 | inconclusive: 20.6 µM [activator, single point] | –
10 | COc1ccc(C(=O)Nc2ccc3nc(N4CCCCC4)cc(C)c3c2)cc1OC | active: 23.1 µM | –
11 | CC1=C(C(=O)Nc2ccccc2)C(c2ccco2)C(C#N)=C(SCC(=O)OC(C)C)N1 (centres undefined) | inconclusive: 23.1 µM [inhibitor, single point] | –
12 | CCn1c(NCc2cc(OC)ccc2OC)nc2ccccc21 | inconclusive: 10 µM [activator, partial curve, poor fit] | –
13 | O=[N+]([O-])c1cc(-c2nc(-c3ccncc3)no2)ccc1Cl | inconclusive: 29.1 µM [inhibitor, single point] | –
14 | CC1CN(Cc2c(O)ccc3c2oc(=O)c2ccccc23)CC(C)O1 (centres undefined) | inconclusive: 29.1 µM [inhibitor, single point] | –
15 | CC(C)Nc1ccc(C(CC(N)=O)NC(=O)Cc2ccc(Br)cc2)cc1[N+](=O)[O-] (centres undefined) | inconclusive: 20.6 µM [inhibitor, single point] | –
16 | CC1=C/C(=N\OS(=O)(=O)c2ccccc2)C=CC1=O | inconclusive: 32.6 µM [inhibitor, single point] | –
17 | COc1ccc(NC(=O)C2(c3ccc(NC(=O)c4ccc(OC)c(OC)c4)cc3)CCCC2)cc1 | inconclusive: 20.6 µM [activator, partial curve, poor fit] | –
18 | CCN(CC(=O)Nc1c(F)cccc1F)C(=O)c1ccc2c(c1)OCCO2 | inconclusive: 20 µM [activator, partial curve, poor fit] | –
19 | COC(=O)c1sc(NC(=O)c2csc3c2CCCC3)nc1C | inconclusive: 2.59 µM [activator, partial curve] | –
20 | O=C(COc1ccc(Cl)cc1Cl)NC(=O)NC1CCCC1 | inconclusive: 6.51 µM [activator, partial curve, poor fit] | –
21 | O=C(Cc1cccs1)Nc1ccc(N2CCOCC2)cc1 | inconclusive: 16.4 µM [activator, partial curve] | –
22 | CCN1C(=O)CC(NNC(=O)c2ccc(Cl)cc2)C1=O (centres undefined) | – | inactive: -4.61%

Part of the list above, with tabs:
Row	SMILES	Potency	activity change, negative = inhibition
14	CC1CN(Cc2c(O)ccc3c2oc(=O)c2ccccc23)CC(C)O1 (centres undefined)	inconclusive: 29.1 µM [inhibitor, single point]	–
15	CC(C)Nc1ccc(C(CC(N)=O)NC(=O)Cc2ccc(Br)cc2)cc1[N+](=O)[O-] (centres undefined)	inconclusive: 20.6 µM [inhibitor, single point]	–
16	CC1=C/C(=N\OS(=O)(=O)c2ccccc2)C=CC1=O	inconclusive: 32.6 µM [inhibitor, single point]	–
17	COc1ccc(NC(=O)C2(c3ccc(NC(=O)c4ccc(OC)c(OC)c4)cc3)CCCC2)cc1	inconclusive: 20.6 µM [activator, partial curve, poor fit]	–

The list continues:

Row | SMILES | Potency | activity change, negative = inhibition
23 | Cc1ccc(/C=N/NC(=O)c2cccc(S(=O)(=O)Nc3ccccc3Cl)c2)o1 | – | inactive: -9.67%
24 | O=C1C2=C(c3ccccc31)[N+](=O)[C@@H]1CCCC[C@@H]1N2[O-] | inconclusive: 23.1 µM [activator, partial curve] | –
25 | CCOC(=O)c1ccc(S(=O)(=O)NCC(C)(C)N2CCOCC2)cc1 | – | inactive: 3.03%
26 | NC(=O)C1CCN(Cc2nc3cc(Cl)ccc3c(=O)[nH]2)CC1 | – | inactive: -3.78%
27 | CCOC(=O)Nc1nc(-c2ccc(Cl)cc2Cl)cs1 | inconclusive: 20.6 µM [activator, partial curve] | –
28 | CN(C)CCCNC(=O)c1cc(C(=O)c2c(Cl)cccc2Cl)c[nH]1 | – | inactive: 1.35%
29 | CC1CCN(CC(CS(=O)(=O)c2ccc([N+](=O)[O-])cc2)N2CCC(C)CC2)CC1 (centres undefined) | inconclusive: 29.1 µM [inhibitor, single point] | –
30 | NC(=O)Cn1c(-c2nonc2N)nc2ccccc21 | – | inactive: 2.71%
31 | COc1cc(C(=O)OCC(=O)N2CCC(Cc3ccccc3)CC2)cc(OC)c1OC | inconclusive: 22.4 µM [inhibitor, single point] | –
32 | C=CCn1c(C(C)NC(=O)C(C)(C)C)nc2ccccc21 (centres undefined) | inconclusive: 18.4 µM [activator, single point] | –
33 | Cc1ccc(OCCNC(=O)c2ccccc2OCc2c(C)noc2C)cc1 | inconclusive: 29.1 µM [inhibitor, single point] | –
34 | O=c1cc(-c2ccc(O)cc2)oc2ccccc12 | inconclusive: 20.6 µM [activator, partial curve] | –
35 | CN(CC(=O)Nc1ccc(Cl)c(S(=O)(=O)N(C)C)c1)Cc1ccccc1 | inconclusive: 29.1 µM [inhibitor, single point] | –
36 | CCCCc1cc(=O)oc2cc(C)cc(OC(C)C(=O)NCc3ccccn3)c12 (centres undefined) | – | inactive: -11.1%
37 | CN(C(=O)COC(=O)Cn1c(C(F)(F)F)nc2ccccc21)c1c(N)n(Cc2ccccc2)c(=O)[nH]c1=O | inconclusive: 25.9 µM [activator, partial curve, poor fit] | –
38 | COC(=O)c1c(NC(C)=O)sc(C)c1C | inconclusive: 29.1 µM [activator, single point] | –
39 | CCCSc1nsc(SCCC)c1C#N | inconclusive: 18.4 µM [activator, single point] | –
40 | COc1ccccc1NS(=O)(=O)c1cccc(NC(=O)CCNC(=O)c2ccccc2OC)c1 | inconclusive: 29.1 µM [inhibitor, single point] | –
41 | COc1ccc(C(=O)O/N=C(\N)c2ccccc2)c(OC)c1 | inconclusive: 0.326 µM [activator, full curve] | –
42 | Cc1noc(C)c1C(=O)N1CCN(S(=O)(=O)c2cccc(Cl)c2Cl)CC1 | – | inactive: 0%
43 | O=C(c1cc(=O)[nH]c2ccccc12)N1CCN(S(=O)(=O)c2ccc3ccccc3c2)CC1 | inconclusive: 25.9 µM [inhibitor, partial curve] | –
44 | O=[N+]([O-])c1ccc(Sc2ccccc2)nc1 | inconclusive: 23.1 µM [activator, partial curve, poor fit] | –
